We go through eight targets from the supplement of paper PMC12819154, “High-throughput peptide-centric local stability assay extends protein–ligand identification to membrane proteins, tissues and bacteria” (Nature Structural & Molecular Biology, 2025).

The chains behind the UniProt entries cited, without tags or fusion partners. Where a name states a change or a piece, a line headed by the entry shows the natural chain unless it says otherwise.
UniProt P53985: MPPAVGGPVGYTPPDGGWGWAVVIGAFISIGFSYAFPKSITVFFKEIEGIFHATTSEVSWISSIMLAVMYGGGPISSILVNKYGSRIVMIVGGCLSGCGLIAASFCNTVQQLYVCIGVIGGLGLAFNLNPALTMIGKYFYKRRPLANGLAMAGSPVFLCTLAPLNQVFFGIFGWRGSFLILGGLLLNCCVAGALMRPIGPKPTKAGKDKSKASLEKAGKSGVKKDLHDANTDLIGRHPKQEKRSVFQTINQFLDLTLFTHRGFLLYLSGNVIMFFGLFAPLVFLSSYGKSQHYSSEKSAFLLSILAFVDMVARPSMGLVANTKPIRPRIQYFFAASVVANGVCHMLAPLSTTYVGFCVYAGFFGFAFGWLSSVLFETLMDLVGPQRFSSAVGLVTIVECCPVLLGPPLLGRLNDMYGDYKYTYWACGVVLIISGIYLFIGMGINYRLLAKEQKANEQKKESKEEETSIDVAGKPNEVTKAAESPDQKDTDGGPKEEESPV
UniProt P48506: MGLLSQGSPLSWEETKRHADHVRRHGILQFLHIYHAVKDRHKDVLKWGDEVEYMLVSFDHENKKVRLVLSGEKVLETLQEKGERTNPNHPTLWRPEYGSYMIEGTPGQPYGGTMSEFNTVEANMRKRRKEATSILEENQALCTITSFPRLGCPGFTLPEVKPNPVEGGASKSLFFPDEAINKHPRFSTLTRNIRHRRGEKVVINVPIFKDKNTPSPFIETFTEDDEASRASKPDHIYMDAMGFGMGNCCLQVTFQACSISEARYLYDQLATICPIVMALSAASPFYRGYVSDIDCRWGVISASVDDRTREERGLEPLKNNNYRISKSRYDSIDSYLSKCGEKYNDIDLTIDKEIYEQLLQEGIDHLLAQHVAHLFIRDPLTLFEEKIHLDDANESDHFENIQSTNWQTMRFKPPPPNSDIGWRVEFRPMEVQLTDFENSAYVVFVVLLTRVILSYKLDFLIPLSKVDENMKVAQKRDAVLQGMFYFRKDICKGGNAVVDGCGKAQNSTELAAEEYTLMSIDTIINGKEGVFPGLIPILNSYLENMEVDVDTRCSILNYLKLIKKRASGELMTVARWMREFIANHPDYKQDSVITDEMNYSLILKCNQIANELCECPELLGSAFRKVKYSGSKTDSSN
UniProt P55010, whole entry: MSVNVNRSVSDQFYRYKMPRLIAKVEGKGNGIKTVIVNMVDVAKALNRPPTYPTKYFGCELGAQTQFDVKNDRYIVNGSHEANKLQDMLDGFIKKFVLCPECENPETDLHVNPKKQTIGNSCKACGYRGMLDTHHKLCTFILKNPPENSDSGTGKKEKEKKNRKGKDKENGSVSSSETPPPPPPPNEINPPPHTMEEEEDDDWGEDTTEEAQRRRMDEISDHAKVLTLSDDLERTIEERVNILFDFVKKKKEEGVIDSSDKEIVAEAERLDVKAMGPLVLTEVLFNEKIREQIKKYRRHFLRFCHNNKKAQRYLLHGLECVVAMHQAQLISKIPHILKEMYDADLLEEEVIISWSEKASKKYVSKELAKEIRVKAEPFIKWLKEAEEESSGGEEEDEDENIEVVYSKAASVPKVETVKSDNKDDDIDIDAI
UniProt P51991: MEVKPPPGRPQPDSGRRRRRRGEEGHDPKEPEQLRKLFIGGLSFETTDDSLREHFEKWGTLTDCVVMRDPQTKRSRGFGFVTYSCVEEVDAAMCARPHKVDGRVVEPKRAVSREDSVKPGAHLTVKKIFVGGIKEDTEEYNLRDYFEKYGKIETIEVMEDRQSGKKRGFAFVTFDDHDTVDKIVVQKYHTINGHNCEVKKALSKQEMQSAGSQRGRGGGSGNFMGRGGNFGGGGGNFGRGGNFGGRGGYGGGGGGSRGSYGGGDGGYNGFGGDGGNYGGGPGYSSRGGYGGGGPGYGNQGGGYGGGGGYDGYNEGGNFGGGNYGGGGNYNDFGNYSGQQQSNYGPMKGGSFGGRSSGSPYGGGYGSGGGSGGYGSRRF
UniProt P54886: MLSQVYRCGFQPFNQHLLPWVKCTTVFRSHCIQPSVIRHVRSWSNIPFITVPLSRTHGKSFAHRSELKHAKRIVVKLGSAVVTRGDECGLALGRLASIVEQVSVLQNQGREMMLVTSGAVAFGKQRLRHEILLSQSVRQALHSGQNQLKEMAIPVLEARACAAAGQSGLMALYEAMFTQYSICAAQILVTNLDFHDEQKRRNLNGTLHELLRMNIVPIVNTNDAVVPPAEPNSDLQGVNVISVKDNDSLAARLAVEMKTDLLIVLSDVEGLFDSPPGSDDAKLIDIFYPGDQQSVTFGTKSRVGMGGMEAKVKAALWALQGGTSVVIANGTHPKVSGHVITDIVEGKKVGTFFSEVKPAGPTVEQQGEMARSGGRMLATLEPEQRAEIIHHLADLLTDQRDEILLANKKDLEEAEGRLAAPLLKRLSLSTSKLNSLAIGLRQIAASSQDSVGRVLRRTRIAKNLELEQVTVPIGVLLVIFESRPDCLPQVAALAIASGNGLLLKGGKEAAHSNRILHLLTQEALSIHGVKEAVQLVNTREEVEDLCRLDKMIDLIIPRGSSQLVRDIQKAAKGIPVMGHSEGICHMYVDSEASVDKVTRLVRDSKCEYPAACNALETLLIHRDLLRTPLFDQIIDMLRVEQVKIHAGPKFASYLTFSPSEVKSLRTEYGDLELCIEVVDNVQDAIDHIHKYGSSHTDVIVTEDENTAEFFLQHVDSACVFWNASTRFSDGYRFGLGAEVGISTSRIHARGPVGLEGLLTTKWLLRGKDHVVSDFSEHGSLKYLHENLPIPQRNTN
UniProt P51570: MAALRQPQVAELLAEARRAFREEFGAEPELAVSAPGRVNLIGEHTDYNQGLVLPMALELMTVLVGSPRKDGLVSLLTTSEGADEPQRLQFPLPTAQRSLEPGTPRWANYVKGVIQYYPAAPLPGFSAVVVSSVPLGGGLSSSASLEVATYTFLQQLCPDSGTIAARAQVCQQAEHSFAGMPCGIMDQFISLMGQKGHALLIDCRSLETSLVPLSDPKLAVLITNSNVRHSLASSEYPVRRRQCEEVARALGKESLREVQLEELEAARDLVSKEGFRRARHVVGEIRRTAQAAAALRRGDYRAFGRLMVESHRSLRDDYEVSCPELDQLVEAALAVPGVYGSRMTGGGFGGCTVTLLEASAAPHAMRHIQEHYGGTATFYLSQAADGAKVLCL
UniProt P54132: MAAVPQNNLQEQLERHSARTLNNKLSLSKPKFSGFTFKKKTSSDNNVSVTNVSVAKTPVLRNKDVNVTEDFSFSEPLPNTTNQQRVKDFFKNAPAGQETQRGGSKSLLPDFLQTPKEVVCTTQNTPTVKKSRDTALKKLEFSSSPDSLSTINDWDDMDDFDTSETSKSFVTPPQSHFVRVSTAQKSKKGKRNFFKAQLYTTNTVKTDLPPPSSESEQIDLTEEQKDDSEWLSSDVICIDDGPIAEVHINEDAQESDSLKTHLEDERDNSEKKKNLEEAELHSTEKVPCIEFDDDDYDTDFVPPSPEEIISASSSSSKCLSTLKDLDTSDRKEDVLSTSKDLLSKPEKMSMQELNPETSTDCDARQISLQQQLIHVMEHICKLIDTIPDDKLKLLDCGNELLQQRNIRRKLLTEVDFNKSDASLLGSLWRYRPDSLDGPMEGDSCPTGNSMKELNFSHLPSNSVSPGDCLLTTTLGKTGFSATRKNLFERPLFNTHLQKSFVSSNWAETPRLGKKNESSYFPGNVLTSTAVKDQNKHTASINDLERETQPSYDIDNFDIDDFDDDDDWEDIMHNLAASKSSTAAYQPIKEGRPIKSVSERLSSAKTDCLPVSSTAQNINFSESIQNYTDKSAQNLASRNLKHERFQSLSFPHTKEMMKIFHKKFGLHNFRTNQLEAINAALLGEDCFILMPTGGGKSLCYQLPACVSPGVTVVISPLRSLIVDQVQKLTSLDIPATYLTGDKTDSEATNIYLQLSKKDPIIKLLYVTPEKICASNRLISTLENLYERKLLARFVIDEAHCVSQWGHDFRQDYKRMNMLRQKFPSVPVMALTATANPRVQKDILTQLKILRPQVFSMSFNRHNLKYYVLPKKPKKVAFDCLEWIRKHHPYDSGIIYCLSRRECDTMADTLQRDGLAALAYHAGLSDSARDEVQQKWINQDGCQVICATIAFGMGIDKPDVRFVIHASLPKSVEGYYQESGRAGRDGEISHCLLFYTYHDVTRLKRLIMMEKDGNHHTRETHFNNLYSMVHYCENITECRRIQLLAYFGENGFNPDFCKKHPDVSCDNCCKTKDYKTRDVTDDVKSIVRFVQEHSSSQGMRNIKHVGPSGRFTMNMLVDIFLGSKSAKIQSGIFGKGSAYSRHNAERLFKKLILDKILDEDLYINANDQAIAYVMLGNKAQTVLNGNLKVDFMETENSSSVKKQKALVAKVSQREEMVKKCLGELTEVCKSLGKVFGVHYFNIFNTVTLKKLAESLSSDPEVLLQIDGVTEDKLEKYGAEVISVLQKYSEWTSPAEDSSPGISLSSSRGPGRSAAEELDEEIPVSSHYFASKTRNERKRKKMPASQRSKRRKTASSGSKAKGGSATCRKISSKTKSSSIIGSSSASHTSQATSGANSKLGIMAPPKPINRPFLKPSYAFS

Some of the results follow. Most entries show no effect beyond the scatter of the controls.

Compound in the test: CN[C@@H]1C[C@H]2O[C@@](C)([C@@H]1OC)n1c3ccccc3c3c4c(c5c6ccccc6n2c5c31)C(=O)NC4 [staurosporine]
The experiment in a line: log2 fold change of tryptic peptide abundance, ligand vs vehicle (limited proteolysis) (log2 ratio); higher = more trypsin-susceptible (destabilized). To be noted: ligand concentration: 20 uM; sample: K562 cleared lysate; digestion: 4 min, 22 C (HT-PELSA RT4min, Orbitrap Astral).
Turning to “SLC16A1 (peptide sequence: DLHDANTDLIGR, peptide start residue: 225) (UniProt P53985)”, the log2 fold change is -0.123.
As to “GCLC (peptide sequence: VVINVPIFK, peptide start residue: 201) (UniProt P48506)”, the log2 fold change was -0.117.
Take “CAPZA2 (peptide sequence: AYVKEHYPNGVCTVYGK, peptide start residue: 130) (UniProt P47755)”: the log2 fold change is -0.423.
As for “EIF5 (peptide sequence: VLTLSDDLER, peptide start residue: 225) (UniProt P55010)”, the log2 fold change was -0.159.
With “HNRNPA3 (peptide sequence: GEEGHDPKEPEQLRK, peptide start residue: 22) (UniProt P51991)”, the log2 fold change came out at 0.598.
In the case of “ALDH18A1 (peptide sequence: KVGTFFSEVKPAGPTVEQQGEMAR, peptide start residue: 348) (UniProt P54886)” it was 0.464; in that of “GALK1 (peptide sequence: HVVGEIRR, peptide start residue: 280) (UniProt P51570)”, 0.526.
In the case of “BLM (peptide sequence: FVIHASLPK, peptide start residue: 960) (UniProt P54132)”, the log2 fold change amounted to 0.66.
